Reference: patent US20190033295A1
Results are given in words; binding and its absence hold for the method and conditions named. Some entries that bind do so weakly or less than the wild type.

By UniProt entry, the sequences of proteins in these tests, tags left out. Where a name states a change or a piece, a line headed by the entry shows the natural chain unless it says otherwise.
UniProt P0DMV8: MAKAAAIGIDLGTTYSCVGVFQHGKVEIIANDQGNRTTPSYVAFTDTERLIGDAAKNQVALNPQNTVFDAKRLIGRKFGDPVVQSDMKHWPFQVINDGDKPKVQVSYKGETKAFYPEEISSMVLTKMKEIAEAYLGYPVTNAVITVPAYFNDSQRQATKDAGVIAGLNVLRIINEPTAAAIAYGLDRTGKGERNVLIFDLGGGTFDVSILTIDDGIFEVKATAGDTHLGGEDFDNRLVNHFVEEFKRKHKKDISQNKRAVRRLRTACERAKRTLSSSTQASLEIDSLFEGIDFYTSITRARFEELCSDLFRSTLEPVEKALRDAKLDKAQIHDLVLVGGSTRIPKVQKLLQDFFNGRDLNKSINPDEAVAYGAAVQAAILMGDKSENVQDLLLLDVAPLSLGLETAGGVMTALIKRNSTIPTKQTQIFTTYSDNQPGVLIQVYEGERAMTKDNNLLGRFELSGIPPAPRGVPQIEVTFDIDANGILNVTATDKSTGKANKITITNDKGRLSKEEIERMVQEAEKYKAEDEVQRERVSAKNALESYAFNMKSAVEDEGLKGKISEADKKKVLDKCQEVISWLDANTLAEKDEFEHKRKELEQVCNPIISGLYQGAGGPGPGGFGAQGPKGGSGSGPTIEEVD

Target: T1, Strep-AIMP2-DX2 (human) (UniProt Q13155)
T1 sequence: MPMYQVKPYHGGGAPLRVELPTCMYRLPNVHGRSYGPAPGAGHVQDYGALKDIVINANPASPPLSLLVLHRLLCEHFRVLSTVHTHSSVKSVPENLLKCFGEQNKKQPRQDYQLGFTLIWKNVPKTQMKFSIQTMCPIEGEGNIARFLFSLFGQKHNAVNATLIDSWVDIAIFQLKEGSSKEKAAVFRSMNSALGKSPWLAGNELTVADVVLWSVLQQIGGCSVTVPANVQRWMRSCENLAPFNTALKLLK
Assay: co-expression in 293T cells, strep-tag column IP, western blot with GFP antibody

GFP-HSP70 fragment SB (substrate binding domain) (from UniProt P0DMV8 385-536)
binding: binds
